Test results: patent US4104371 (dated 1978)
[ ]: non-standard residue; d: D form.

Test: general procedure: solution-phase peptide synthesis; DCCI/HOBt; azide coupling (iso-amyl nitrite); ONP active ester
Details: late stage modification step, acetate

For H-MAAA[dK]FG-OH, the step yield was 78%.
